Several values for one entry are separate records, joined by “and”; a condition that tells them apart may be missing. Equal values may be shown once. This list was built around the results that the source calls inconclusive (neither active nor inactive); the mix of calls is not that of the screen. A potency beside an inconclusive call is a rough fit, not a confirmed value. Activity calls are given as the source filed them. Unless noted, calls follow the shape of the dose curve; as a rule, active = well fitted curve in the direction sought with a large enough effect; inconclusive = small, poorly fitted or top-dose-only effect, or another doubt; inactive = no such curve, though single readings can be large; an effect the other way counts as inactive or inconclusive.
Experiments:
[1] = Quantitative High-Throughput drug screen in 47 multiple myeloma cell lines against the NCATS MIPE library collection: UTMC2_PLB cell viability assay (AID 1919868); details: CellTiter-Glo ATP luminescence, 48 h; viability (% of DMSO control): at 45.8 µM (top of the series); also: nearly all actives have a fitted effect of over 55% in size
Outline: (§1)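 Myeloma cells (500/well) treated with MIPE 4.0 compounds for 48 h at 37 °C, 5% CO2. Viability read as ATP via CellTiter-Glo luminescence after 5 min at RT; DMSO-only wells = 100%, media-only = 0% viability.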

[2] = Quantitative High-Throughput drug screen in 47 multiple myeloma cell lines against the NCATS MIPE library collection: PE2_PLB cell viability assay (AID 1919869); also: nearly all actives have a fitted effect of over 35% in size
Outline: as §1

[3] = Quantitative High-Throughput drug screen in 47 multiple myeloma cell lines against the NCATS MIPE library collection: PCM6_Riken cell viability assay (AID 1919870); details: CellTiter-Glo ATP, 48 h; viability (% of control): at 45.8 µM (top of the series); also: nearly all actives have a fitted effect of over 30% in size
Outline: as §1

[4] = Quantitative High-Throughput drug screen in 47 multiple myeloma cell lines against the NCATS MIPE library collection: RPMI8226_ATCC cell viability assay (AID 1919871); also: nearly all actives have a fitted effect of over 30% in size
Outline: as §1

[5] = Quantitative High-Throughput drug screen in 47 multiple myeloma cell lines against the NCATS MIPE library collection: KMS11_JCRBsus cell viability assay (AID 1919873); also: nearly all actives have a fitted effect of over 50% in size
Outline: as §1

[6] = Quantitative High-Throughput drug screen in 47 multiple myeloma cell lines against the NCATS MIPE library collection: KMS28BM_JCRB cell viability assay (AID 1919874); also: nearly all actives have a fitted effect of over 35% in size
Outline: as §1

[7] = qHTS for identification of novel therapeutic agents for treatment of microphthalmiaassociated transcription factor (MiT) renal cell carcinoma (RCC) (AID 1963991; calls by dose curve); details: TFE3-RCC UOK109 viability, CellTiter-Glo, 48 h; active = Z-AUC below -0.8 in all three lines
Outline: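 Curves over 11 concentrations were fitted to CellTiter-Glo luminescence, scaled between empty wells (0%) and DMSO (100%) viability. Cells were UOK109, UOK124 and UOK145 TFE3-fusion RCC lines at 500/well, exposed 48 hours at 37 C.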

[8] = test system: CRL-7250; assay: Cytotoxic Profiling of Annotated Libraries Using Quantitative High-Throughput Screening (AID 1296008); details: Five cell lines viability, CellTiter-Glo ATP luminescence, 48-72 h; max response: stronger effect = lower value; also: nearly all actives have a fitted effect of over 60% in size; as to max response: % is scaled to controls: 0 for no effect and ±100 for the full control effect
Outline: (§2)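 Compounds were pin-transferred onto cells and incubated 48 or 72 hr at 37 degree Celsius, 95% humidity. CellTiter-Glo was added, plates sat 10 min at room temperature, then ATP-coupled luminescence was imaged as the viability read-out.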

[9] = test system: HEK293; assay: as above; details: Five cell lines viability, CellTiter-Glo ATP luminescence, 48-72 h; max response: stronger effect = lower value
Outline: as §2

[10] = test system: HaCat; assay: as above; details: Five cell lines viability, CellTiter-Glo ATP luminescence, 48-72 h; max response: stronger effect = lower value
Outline: as §2

[11] = test system: NIH3T3; assay: as above; details: Five cell lines viability, CellTiter-Glo ATP luminescence, 48-72 h; max response: stronger effect = lower value
Outline: as §2

[12] = test system: KB-3-1; assay: as above; details: Five cell lines viability, CellTiter-Glo ATP luminescence, 48-72 h; max response: stronger effect = lower value
Outline: as §2

[13] = Quantitative High-Throughput drug screen in 47 multiple myeloma cell lines against the NCATS MIPE library collection: OPM2_DSMZ cell viability assay (AID 1919872); also: nearly all actives have a fitted effect of over 30% in size
Outline: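 Steps: seed 500 cells per well; pin-transfer MIPE 4.0 library; incubate 48 h at 37C, 5% CO2, humidified; add CellTiter-Glo, 5 min room temperature; read luminescence.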

[14] = test system: MCC-13; assay: qHTS assay to identify novel small-molecules to repurpose for Merkel cell carcinoma treatment (AID 1296009); details: MCC and control cell lines, CellTiter-Glo viability, 72 h; series mostly up to 46 µM; also: nearly all actives have a fitted effect of over 60% in size
Outline: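 Cells exposed to NPC (8-point) and MIPE (11-point) compound dilutions for 72 hr at 37 degree celsius; viability read by CellTiter-Glo luminescence, normalized to no-cell and DMSO in-plate controls.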
Potency is read from the fitted curve at half-maximal effect.

O=C1c2ccccc2-c2n[nH]c3cccc1c23
Potency [1]: inconclusive: 0.003 µM [rising, full curve, poor fit]
Potency [2]: inconclusive: 18.7 µM [cytotoxic, partial curve, poor fit]
Potency [3]: inconclusive: 7.43 µM [cytotoxic, partial curve]
Potency [4]: inconclusive: 20.9 µM [cytotoxic, single point]
Potency [5]: inactive
Potency [6]: inconclusive: 1.32 µM [rising, partial curve, poor fit]
Potency [7]: inconclusive: 6.62 µM [falling, partial curve]
Potency [8]: inconclusive: 29.6 µM [inhibitor, single point]
Potency [9]: inconclusive: 3.72 µM [inhibitor, full curve, poor fit]
Potency [10]: inconclusive: 37.2 µM [inhibitor, single point]
Potency [11]: inconclusive: 2.35 µM [inhibitor, full curve]

CCC(C)n1ncn(-c2ccc(N3CCN(c4ccc(OC[C@H]5CO[C@](Cn6cncn6)(c6ccc(Cl)cc6Cl)O5)cc4)CC3)cc2)c1=O (stereo partly drawn)
Potency [1]: inconclusive: 0.0372 µM [rising, full curve, poor fit]
Potency [3]: inconclusive: 0.743 µM [cytotoxic, full curve, poor fit]
Potency [6]: inconclusive: 2.96 µM [cytotoxic, partial curve, poor fit]
Potency [7]: inconclusive: 3.32 µM [falling, partial curve]
Potency [8]: inconclusive: 5.31 µM [inhibitor, single point]
max response [8]: inactive: -2.71%
Potency [9]: inconclusive: 2.99 µM [inhibitor, full curve, poor fit] and inconclusive: 7.43 µM [inhibitor, partial curve]
Potency [10]: inconclusive: 14.2 µM [inhibitor, single point]
Potency [11]: inconclusive: 2.37 µM [inhibitor, partial curve]

CNC(=O)[C@H](Cc1ccccc1)NC(=O)[C@H](CC(C)C)[C@H](CSc1cccs1)C(=O)NO
Potency [1]: inconclusive: 0.372 µM [cytotoxic, full curve, poor fit]
Potency [4]: inconclusive: 18.7 µM [cytotoxic, partial curve, poor fit]
Potency [5]: inconclusive: 3.72 µM [cytotoxic, full curve]
Potency [6]: inconclusive: 2.96 µM [cytotoxic, full curve, poor fit]
Potency [7]: inconclusive: 5.9 µM [falling, partial curve]
Potency [8]: inconclusive: 37.2 µM [inhibitor, single point]
Potency [9]: inconclusive: 16.6 µM [inhibitor, partial curve]
Potency [10]: active: 13.2 µM

CC(CCc1ccc(O)cc1)NCCc1ccc(O)c(O)c1 (stereo not drawn)
Potency [1]: inconclusive: 37.2 µM [cytotoxic, partial curve, poor fit]
Potency [7]: inconclusive: 26.4 µM [falling, partial curve, poor fit]
Potency [8]: inconclusive: 37.2 µM [inhibitor, single point] and active: 23.7 µM
Potency [9]: inconclusive: 18.8 µM [inhibitor, single point]
max response [10]: inactive: 0.349%
outcome [10]: inactive

Cc1cnc(C(=O)NCCc2ccc(S(=O)(=O)NC(=O)NC3CCCCC3)cc2)cn1
Potency [1]: inconclusive: 23.5 µM [cytotoxic, partial curve, poor fit]
Potency [5]: inconclusive: 23.5 µM [cytotoxic, single point]
Potency [6]: inconclusive: 16.6 µM [cytotoxic, partial curve]
max response [8]: inactive: 0.493%
outcome [8]: inactive
Potency [9]: inconclusive: 37.2 µM [inhibitor, single point]

CC[C@@]1(O)C(=O)OCc2c1cc1n(c2=O)Cc2cc3cc(O)ccc3nc2-1
Potency [1]: active: 0.0372 µM
Potency [6]: active: 0.209 µM
Potency [7]: active: 1.48 µM
Potency [8]: active: 1.3 µM and active: 1.48 µM
Potency [9]: active: 73.1 nM and active: 148 nM
Potency [10]: active: 116 nM and active: 743 nM
Potency [12]: active: 517 nM and active: 1.05 µM

CCCCCCCCCC(=O)N[C@@H](Cc1c[nH]c2ccccc12)C(=O)N[C@H](CC(N)=O)C(=O)N[C@@H](CC(=O)O)C(=O)N[C@@H]1C(=O)NCC(=O)N[C@@H](CCCN)C(=O)N[C@@H](CC(=O)O)C(=O)N[C@H](C)C(=O)N[C@@H](CC(=O)O)C(=O)NCC(=O)N[C@H](CO)C(=O)N[C@@H]([C@@H](C)CC(=O)O)C(=O)N[C@@H](CC(=O)c2ccccc2N)C(=O)O[C@@H]1C
Potency [1]: inconclusive: 0.0012 µM [cytotoxic, full curve, poor fit]
Potency [4]: inactive
Potency [6]: inactive
Potency [7]: inconclusive: 16.6 µM [rising, partial curve, poor fit]
Potency [8]: inconclusive: 0.743 µM [inhibitor, partial curve, poor fit]
max response [9]: inactive: 3.78%
outcome [9]: inactive

Clc1ccccc1C(c1ccccc1)(c1ccccc1)n1ccnc1
Potency [1]: inconclusive: 0.0013 µM [cytotoxic, full curve, poor fit]
Potency [2]: inconclusive: 14.8 µM [cytotoxic, partial curve, poor fit]
Potency [3]: inconclusive: 16.6 µM [cytotoxic, partial curve]
Potency [13]: inconclusive: 33.2 µM [cytotoxic, partial curve, poor fit]
Potency [6]: inconclusive: 16.6 µM [cytotoxic, partial curve]
Potency [7]: inconclusive: 16.6 µM
max response [8]: inactive: -11.6% and inactive: -17.2%
Potency [9]: inconclusive: 23.7 µM [inhibitor, single point] and active: 20.9 µM
Potency [12]: inconclusive: 33.2 µM [inhibitor, single point]
Potency [11]: inconclusive: 29.9 µM [inhibitor, partial curve, poor fit] and inconclusive: 37.2 µM [inhibitor, partial curve, poor fit]

O=C(NCc1ccncc1)C12C[C@H]3C[C@@H](C1)CC(c1ccc(Cl)cc1)(C3)C2
Potency [1]: inconclusive: 4.69 µM [cytotoxic, partial curve, poor fit]
Potency [2]: inconclusive: 14.8 µM [cytotoxic, partial curve]
Potency [3]: inconclusive: 14.8 µM [cytotoxic, partial curve, poor fit]
Potency [13]: inconclusive: 37.2 µM [cytotoxic, single point]
Potency [7]: inconclusive: 23.5 µM [falling, partial curve, poor fit]
max response [8]: inactive: -10.8%
Potency [9]: active: 10.5 µM
Potency [10]: inconclusive: 33.2 µM [inhibitor, single point]
Potency [11]: inconclusive: 37.2 µM [inhibitor, partial curve, poor fit]

Cc1ccc(N(CC2=NCCN2)c2cccc(O)c2)cc1
Potency [1]: inconclusive: 0.0083 µM [cytotoxic, full curve, poor fit]
Potency [4]: inconclusive: 20.9 µM [cytotoxic, partial curve, poor fit]
Potency [13]: inconclusive: 26.4 µM [cytotoxic, single point]
Potency [6]: inconclusive: 5.26 µM [cytotoxic, partial curve]
Potency [8]: inconclusive: 33.2 µM [inhibitor, single point] and inconclusive: 33.5 µM [inhibitor, partial curve, poor fit]
Potency [9]: inconclusive: 37.2 µM [inhibitor, single point] and inconclusive: 23.7 µM [inhibitor, single point]

O=C(O)c1ccc(-c2cc3cccnc3c(-c3ccc4nonc4c3)n2)cc1
Potency [3]: active: 29.6 µM
Potency [4]: inconclusive: 26.4 µM [cytotoxic, single point]
Potency [13]: inconclusive: 18.7 µM [cytotoxic, partial curve, poor fit]
Potency [5]: active: 26.4 µM
Potency [6]: active: 26.4 µM
Potency [7]: inconclusive: 20.9 µM [falling, single point]
Potency [8]: inconclusive: 23.5 µM [inhibitor, single point]
Potency [9]: active: 14.8 µM
Potency [12]: inconclusive: 33.2 µM [inhibitor, single point]
Potency [11]: inconclusive: 37.2 µM [inhibitor, single point]

Nc1cc(C(Cl)=C(Cl)Cl)c(S(N)(=O)=O)cc1S(N)(=O)=O
Potency [1]: inconclusive: 29.6 µM [rising, partial curve, poor fit]
Potency [3]: inactive
Potency [4]: inactive
Potency [6]: inconclusive: 26.4 µM [cytotoxic, single point]
Potency [8]: inconclusive: 33.2 µM [inhibitor, single point]
Potency [9]: inconclusive: 37.2 µM [inhibitor, single point]
Potency [14]: inactive

CCc1nc(N)nc(N)c1-c1ccc(Cl)cc1
Potency [1]: inconclusive: 5.9 µM [cytotoxic, full curve, poor fit]
Potency [2]: inconclusive: 18.7 µM [cytotoxic, partial curve]
Potency [3]: inconclusive: 3.32 µM [cytotoxic, full curve, poor fit]
Potency [4]: inconclusive: 5.9 µM [cytotoxic, partial curve, poor fit]
Potency [13]: inconclusive: 4.18 µM [cytotoxic, full curve]
Potency [7]: inconclusive: 16.6 µM [falling, partial curve]
Potency [8]: inconclusive: 33.2 µM [inhibitor, single point]
Potency [10]: inconclusive: 21.1 µM [inhibitor, single point]
Potency [12]: inconclusive: 29.1 µM [inhibitor, single point] and inconclusive: 29.6 µM [inhibitor, single point]
Potency [11]: active: 8.41 µM and active: 9.35 µM
Potency [14]: inconclusive: 3.35 µM [inhibitor, full curve] and inconclusive: 8.33 µM [inhibitor, partial curve]

CN(C)CC[C@H](CSc1ccccc1)Nc1ccc(S(=O)(=O)NC(=O)c2ccc(N3CCN(Cc4ccccc4-c4ccc(Cl)cc4)CC3)cc2)cc1[N+](=O)[O-]
Potency [1]: active: 1.18 µM
Potency [5]: inconclusive: 7.43 µM [cytotoxic, partial curve]
Potency [7]: inconclusive: 4.69 µM [falling, full curve]
Potency [8]: inconclusive: 37.2 µM [inhibitor, single point]
Potency [9]: inconclusive: 33.2 µM [inhibitor, single point]
Potency [11]: inconclusive: 11.8 µM [inhibitor, partial curve]

From PubChem BioAssay (NCATS)
